Residue numbers refer to the chain shown, from its start. Results are given in words; binding and its absence hold for the method and conditions named. Binding seen in cells or lysates may run through a third protein. Some binding calls cover weakened binding; strength is not graded here. Sequences can lack the tags named with a protein.
What was measured:
[1] = biological target: T1, HA-Amot-p130 (mouse (by the paper's numbering: Ser176 in mouse, Ser175 in human)) (UniProt Q8VHG2); assay: co-IP; hSC2λ cells co-transfected with YAP and an Amot allele, fractionated into cytoplasmic, nuclear and plasma membrane fractions; Amot IP of each fraction, anti-YAP immunoblot
T1 sequence: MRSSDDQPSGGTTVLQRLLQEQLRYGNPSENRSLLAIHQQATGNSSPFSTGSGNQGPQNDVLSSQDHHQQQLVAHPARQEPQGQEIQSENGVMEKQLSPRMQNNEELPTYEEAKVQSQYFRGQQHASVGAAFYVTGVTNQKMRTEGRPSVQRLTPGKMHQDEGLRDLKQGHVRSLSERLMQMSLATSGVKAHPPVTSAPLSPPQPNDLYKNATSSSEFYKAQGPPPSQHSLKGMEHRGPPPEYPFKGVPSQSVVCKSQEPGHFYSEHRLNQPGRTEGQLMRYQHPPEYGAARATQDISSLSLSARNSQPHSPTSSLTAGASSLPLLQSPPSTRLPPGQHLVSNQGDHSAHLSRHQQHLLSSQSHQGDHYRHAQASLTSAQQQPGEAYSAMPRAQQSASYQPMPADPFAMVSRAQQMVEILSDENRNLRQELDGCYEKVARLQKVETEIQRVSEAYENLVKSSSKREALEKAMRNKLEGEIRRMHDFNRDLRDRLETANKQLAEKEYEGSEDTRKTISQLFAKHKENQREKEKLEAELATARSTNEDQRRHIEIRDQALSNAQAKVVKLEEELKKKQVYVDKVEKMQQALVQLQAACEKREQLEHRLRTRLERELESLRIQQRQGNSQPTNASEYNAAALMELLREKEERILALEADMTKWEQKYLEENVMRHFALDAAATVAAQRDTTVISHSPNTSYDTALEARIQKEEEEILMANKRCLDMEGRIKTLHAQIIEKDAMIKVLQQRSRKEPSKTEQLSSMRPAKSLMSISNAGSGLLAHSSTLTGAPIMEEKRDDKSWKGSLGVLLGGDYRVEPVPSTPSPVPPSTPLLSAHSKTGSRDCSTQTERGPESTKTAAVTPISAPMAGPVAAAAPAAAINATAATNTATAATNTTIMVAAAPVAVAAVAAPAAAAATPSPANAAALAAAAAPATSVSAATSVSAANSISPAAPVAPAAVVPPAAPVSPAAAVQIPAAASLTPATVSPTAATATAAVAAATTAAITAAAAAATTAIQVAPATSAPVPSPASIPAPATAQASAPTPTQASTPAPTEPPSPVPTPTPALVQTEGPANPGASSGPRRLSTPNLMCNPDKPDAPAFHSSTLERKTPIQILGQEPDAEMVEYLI

Chains of the proteins cited; added tags and fusions are not shown.
UniProt P46937: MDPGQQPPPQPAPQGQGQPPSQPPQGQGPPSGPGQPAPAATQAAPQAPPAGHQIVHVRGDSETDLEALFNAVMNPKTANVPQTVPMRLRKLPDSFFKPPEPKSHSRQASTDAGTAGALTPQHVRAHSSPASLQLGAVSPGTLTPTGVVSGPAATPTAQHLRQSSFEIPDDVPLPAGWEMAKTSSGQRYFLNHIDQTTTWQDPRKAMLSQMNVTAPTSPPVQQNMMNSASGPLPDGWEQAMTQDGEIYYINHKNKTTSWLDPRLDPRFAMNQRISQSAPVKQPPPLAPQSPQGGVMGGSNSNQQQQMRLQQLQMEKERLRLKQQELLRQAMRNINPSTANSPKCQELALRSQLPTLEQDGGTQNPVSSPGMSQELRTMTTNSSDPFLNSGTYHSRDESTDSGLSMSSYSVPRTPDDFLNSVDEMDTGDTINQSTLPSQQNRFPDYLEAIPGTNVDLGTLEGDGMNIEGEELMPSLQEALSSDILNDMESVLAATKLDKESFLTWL

[2] = biological target: T2, HA-Amot-p130^S176E (mouse (by the paper's numbering: Ser176 in mouse, Ser175 in human)) (UniProt Q8VHG2); assay: as above
T2 sequence: T1 sequence with S176E

binding [1]: binds | binding [2]: binds
Substance: V5-tagged YAP (from UniProt P46937 1-504)
